The results in this text go back to publication PMC12017883.

Protein sequences, listed by entry. Tags and fused reporters are not part of them. Lines headed by an entry give the natural chain unless they say otherwise; changes in a name come on top.
UniProt P00441: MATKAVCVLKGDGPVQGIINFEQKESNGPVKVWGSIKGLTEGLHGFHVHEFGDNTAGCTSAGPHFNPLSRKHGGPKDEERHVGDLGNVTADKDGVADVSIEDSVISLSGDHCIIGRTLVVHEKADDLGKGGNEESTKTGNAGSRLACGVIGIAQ

No constants are given. Whether binding was seen depends on the method and setting. Binding seen in cells or lysates may run through a third protein. These calls come from enrichment with a bait or labelling near it, and not all partners need be listed.

The assay concerns the target human mtSOD1-L126delTT with a FLAG sequence at the C terminus (human) (UniProt P00441). Kind of assay: affinity purification with mass spectrometry; anti-FLAG M2 IP (5 ug antibody, protein A/G magnetic beads) from the cytosolic fraction of DF7 cells (500 ug total protein); DIA proteomics; no control IP told for this fraction.

B1: Peroxiredoxin-1 (protein, UniProt P35700 1-199)
chain: MSSGNAKIGYPAPNFKATAVMPDGQFKDISLSEYKGKYVVFFFYPLDFTFVCPTEIIAFSDRADEFKKLNCQVIGASVDSHFCHLAWINTPKKQGGLGPMNIPLISDPKRTIAQDYGVLKADEGISFRGLFIIDDKGILRQITINDLPVGRSVDEIIRLVQAFQFTDKHGEVCPAGWKPGSDTIKPDVNKSKEYFSKQK
Regarding B1, the binding result was “binds”.
